{
  "source": "patent US20060241020A1",
  "about": "“Protein tyrosine phosphatase inhibitors” (Applied Research Systems ARS Holdings N.V., priority 2002, published 2006)",
  "target": "T1, Sap1 (Homo sapiens, UniProt Q9HD43)",
  "T1 sequence (Q9HD43 820-1079 limits assumed)": "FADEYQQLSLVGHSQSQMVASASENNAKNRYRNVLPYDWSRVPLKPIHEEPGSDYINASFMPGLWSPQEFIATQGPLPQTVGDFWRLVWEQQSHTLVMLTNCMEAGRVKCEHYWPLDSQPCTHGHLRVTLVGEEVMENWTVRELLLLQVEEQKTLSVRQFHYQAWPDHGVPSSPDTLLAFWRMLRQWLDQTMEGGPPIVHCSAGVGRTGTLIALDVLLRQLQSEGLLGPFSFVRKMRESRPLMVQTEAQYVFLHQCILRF",
  "experiment": "Km of example phosphopeptide substrates (Table IX summary)",
  "type": "biochemical",
  "conditions": "phosphopeptide as Sap1 substrate",
  "note": "Not every detail of the peptide structures is certain; ends, links or a residue may be inferred. Square brackets hold non-standard residues; d marks the D form. Peptide text beside a SMILES is read from it. pY = N[C@@H](Cc1ccc(OP(=O)(O)O)cc1)C(=O)O",
  "data": [
    {"compound": "CC(C)C[C@H](NC(=O)[C@H](CCC(=O)O)NC(=O)CNC(=O)[C@H](CCC(=O)O)NC(=O)[C@H](C)N)C(=O)N[C@@H](Cc1ccc(OP(=O)(O)O)cc1)C(=O)NCC(=O)N[C@@H](CO)C(=O)N[C@@H](CC(C)C)C(=O)N[C@@H](Cc1ccc(O)cc1)C(=O)N[C@@H](C)C(=O)O", "note": "[AEGELpYGSLYA] (H-AEGEL[pY]GSLYA-OH)", "values": [
      {"measurement": "Km", "result": 7.6, "unit": "µM"}
    ]}
  ]
}
